Source: patent US20240336640A1, “CALCIUM OXALATE CRYSTALLIZATION INHIBITORS FOR RENAL DISORDERS” (VIFOR (INTERNATIONAL) AG, priority 2018, published 2024)
Some entries share one result that the patent states for a list of compounds. For at least one compound, name, drawing or mass did not settle the structure.

Tested on: RPTEC/TERT1 cells
Test: CaOx crystal adhesion to renal proximal tubular epithelial cells
Format: cell-based, human
Conditions: 150 μg/cm^2 CaOx premixed with compound, 30 min

COCCOCCO[C@@H]1C(OP(=O)(O)O)[C@H](OCCOCCOC)[C@@H](OP(=O)(O)O)C(OP(=O)(O)O)[C@H]1OP(=O)(O)O (stereo partly shown) [(OEG2)2-IP4]
concentration leading to <25% of CaOx adhesion compared to the control: above 100 μM
